Laboratory results as given in patent US8455398B2, “Amide compounds, preparation methods and uses thereof” (Sinochem Corporation, priority 2008, dated 2013).
Some results were stated once for a whole list of compounds, not compound by compound.

What was measured:
grey mould = assay: Fungicidal activity in vivo, grey mould; conditions: 400 ppm, plants sprayed, inoculated after 24 hours
cucumber anthracnose = assay: Fungicidal activity in vivo, cucumber anthracnose; conditions: 25 ppm, plants sprayed, inoculated after 24 hours
Protocol: Determine the fungicidal activities of the compounds of the present invention against plant diseases, carried by following procedure:
Determination of Fungicidal Activity In Vivo:
Compounds were dissolved in acetone, and diluted to required concentration with water containing 0.1% of tween 80. Plants were sprayed by a sprayer. After 24 hours, plants were innoculated and then transferred into a dew chamber for infection. After the infection period normally one week), the plants were scored for disease control.

Compound	control of grey mould (grey mould)	control of cucumber anthracnose (cucumber anthracnose)
Cc1cc(C(=O)NCCNc2ncc(C(F)(F)F)cc2Cl)ccc1NC(=O)C1C(C=C(Cl)Cl)C1(C)C (centres unmarked) [107 in Table 96]	more than 70%	
Cc1cc(Cl)cc(C(=O)NCCNc2ncc(C(F)(F)F)cc2Cl)c1NC(=O)c1cc(Br)nn1-c1ncccc1Cl [Table 181-83]		more than 90%
